Results reported in the supplement of paper PMC8104966.
Where a name gives a salt, the structure may show the parent alone. Some of the results follow. This data set is noisy: repeats of one test often differ as much as different tests do.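 U2OS cells expressing ACE2 were combined with U2OS cells expressing full-length spike, and imaging quantified fusion as the fraction of nuclei displaying both cell types' fluorescent markers. Non-toxic compounds with a fusion z-score under -3, i.e., over three standard deviations below the plate's DMSO wells, are called inhibitory hits.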

Each compound was assayed on U2OS ACE2 x SARS-CoV-2 spike co-culture (assay: cell-cell fusion (fraction fused) z-score vs plate DMSO control; higher = more fusion). Conditions: 30 µM; 5 h; toxicity class: non-toxic, passed QC.

SMILES	cell-cell fusion (z-score)
CCOC(=O)[C@@H](N)Cc1ccc(O)c(O)c1 [L-Dopa ethyl ester]	inactive: 2.73
CC1=C(/C=C/C(C)=C/C=C/C(C)=C/C(=O)O)C(C)(C)CCC1 [Tretinoin]	inactive: 1.64
CC(C)(O)CNc1nc(Nc2ccnc(C(F)(F)F)c2)nc(-c2cccc(C(F)(F)F)n2)n1 [Enasidenib]	inactive: -2.7
CCC[C@H](N[C@@H](C)C(=O)N1[C@H](C(=O)O)C[C@@H]2CCCC[C@@H]21)C(=O)O	inactive: 1.86
CCOC(=O)[N-]c1c[n+](N2CCOCC2)no1 [Molsidomine]	inactive: 3
CCOC(=O)[N-]c1c[n+](N2CCOCC2)no1	inactive: 2.19
CO[C@@]1(NC(=O)CSCC#N)C(=O)N2C(C(=O)[O-])=C(CSc3nnnn3C)CSC21.[Na+] (some centres not stated)	inactive: 2.29
C#Cc1cccc(Nc2ncnc3cc(OCCOC)c(OCCOC)cc23)c1 [Erlotinib HCl (OSI-744)]	active: -4.26
OC[C@@H]1OC2OC3[C@@H](O)C(O)C(OC4[C@H](O)C(O)C(OC5[C@H](O)C(O)C(OC6[C@@H](O)C(O)C(OC7[C@@H](O)C(O)C(OC8[C@H](O)C(O)C(OC1[C@H](O)C2O)O[C@H]8CO)O[C@@H]7CO)O[C@@H]6CO)O[C@H]5CO)O[C@H]4CO)O[C@@H]3CO (stereo partly drawn) [beta-CYCLODEXTRIN]	inactive: 2.68
CN(C)C[C@H]1CCn2cc(c3ccccc32)C2=C(C(=O)NC2=O)c2cn(c3ccccc23)CCO1.CS(=O)(=O)O	inactive: -0.34
Nc1ncnc2c1ncn2[C@@H]1O[C@H](CO)[C@@H](O)[C@@H]1O [Vidarabine]	inactive: 1.87
Nc1ccc(S(N)(=O)=O)cc1	inactive: 2.68
Cn1c(Nc2ccc(C(F)(F)F)cc2)nc2cc(Oc3ccnc(-c4ncc(C(F)(F)F)[nH]4)c3)ccc21	active: -16.1
O=C(O)CCc1nc(-c2ccccc2)c(-c2ccccc2)o1 [Oxaprozin]	inactive: 2.84
CC(=O)OCC(=O)[C@@]12N=C(C)O[C@@H]1C[C@H]1[C@@H]3CCC4=CC(=O)C=C[C@]4(C)[C@H]3[C@@H](O)C[C@@]12C [Deflazacort]	inactive: 0.914
CN(C)CCCNc1c2c(=O)n(C)c(=O)nc-2n(C)c2ccccc12.Cl.Cl	inactive: 1.31
CCN(C)C(=O)Oc1cccc([C@H](C)N(C)C)c1.O=C(O)[C@H](O)[C@@H](O)C(=O)O [Rivastigmine tartrate]	inactive: 2.49
NC(CSCSCC(N)C(=O)O)C(=O)O (configuration not stated)	inactive: 2.19
Cc1ccc(O)cc1	inactive: 0.0699
Cn1cnc([N+](=O)[O-])c1Sc1ncnc2nc[nH]c12 [Azathioprine]	inactive: 2.04
CNC(=O)[C@@H](NC(=O)[C@H](CC(C)C)[C@H](O)C(=O)NO)C(C)(C)C [Marimastat]	inactive: 0.246
Cn1cc[nH]c1=S	inactive: -0.133
CC1CNCCN1S(=O)(=O)c1cccc2cnccc12.Cl.Cl (configuration not stated)	inactive: 0.0784

SMILES	cell-cell fusion (z-score)
Cc1cc(-c2ccc(/N=N/c3ccc4c(S(=O)(=O)[O-])cc(S(=O)(=O)[O-])c(N)c4c3O)c(C)c2)ccc1/N=N/c1ccc2c(S(=O)(=O)[O-])cc(S(=O)(=O)[O-])c(N)c2c1O.[Na+].[Na+].[Na+].[Na+]	inactive: 0.578
CNCC[C@@H](Oc1ccccc1C)c1ccccc1.Cl [Atomoxetine hydrochloride]	inactive: 2.87
CCNC(=O)[C@H]1O[C@@H](n2cnc3c(N)nc(NCCc4ccc(CCC(=O)O)cc4)nc32)C(O)[C@H]1O.Cl (some centres not stated)	inactive: 2.76
COCCN1C2=C(C(=O)c3ccccc3C2=O)N(Cc2cnccn2)C1C.[Br-] (configuration not stated)	inactive: -1.62
CN1[C@@H](CC(=O)c2ccccc2)CCC[C@H]1C[C@H](O)c1ccccc1.Cl [alpha-Lobeline hydrochloride]	inactive: 2.72
N.N.O=C([O-])C1(C(=O)[O-])CCC1.[Pt+2] [Carboplatin]	inactive: 2.19
COC(=O)C(C)(N)Cc1ccc(O)cc1.Cl (racemic) [alpha-Methyl-DL-tyrosine methyl ester hydrochloride]	inactive: 2.59
CCCC(=O)Nc1ccc(OCC(O)CNC(C)C)c(C(C)=O)c1.Cl (configuration not stated)	inactive: 2.06
CN(C)CCCN1c2ccccc2Sc2ccc(Cl)cc21.Cl [Chlorpromazine hydrochloride]	inactive: 1.38
CC(=O)Oc1c2c(c(CC=C(C)C)c3c1C(=O)C1=C[C@@H]4CC5C(C)(C)OC(C/C=C(\C)C(=O)O)(C4=O)[C@@]15O3)OC(C)(CCC=C(C)C)C=C2 (some centres not stated)	inactive: 1.38
NC(=S)c1ccc[n+]([C@@H]2O[C@@H](COP(=O)([O-])OP(=O)(O)OC[C@H]3O[C@@H](n4cnc5c(N)ncnc54)C(OP(=O)([O-])O)[C@H]3O)C(O)C2O)c1.[Na+] (some centres not stated) [Thio-NADP sodium]	inactive: 2.14
COc1ccc(O)cc1 [4-Methoxyphenol]	inactive: 2.33
COc1cccc2cc(-c3nc([C@H]4CC[C@H](C(=O)O)CC4)n4ncnc(N)c34)[nH]c12	inactive: 0.831
CC(=O)O[C@@H]1CC2C(C)(C)C(=O)CC[C@]2(C)C2CC[C@@]3(C)[C@H](c4ccoc4)OC(=O)C4OC43[C@@]21C (some centres not stated)	inactive: 1.95
NCCc1cnc[nH]1 [Histamine]	inactive: 1.23
CCCCCCCCCCCCCCCCCCCCCCO [n-Docosanol]	inactive: 2.45
CCCCCCCCCCCCCCCCCCCCCCO	inactive: 2.22
CN1CCC(C(=O)c2cccc(NC(=O)c3c(F)cc(F)cc3F)n2)CC1 [Lasmiditan]	inactive: 3.2
C[C@@H]1CC2C3CCC4=CC(=O)C=C[C@]4(C)[C@@]3(F)[C@@H](O)C[C@]2(C)[C@@]1(O)C(=O)CO (some centres not stated)	inactive: 1.18
CC(C)NC[C@H](O)COc1ccc(CC(N)=O)cc1 [S(-)-Atenolol]	inactive: 1.99
CN(c1ncccc1CNc1nc(Nc2ccc3c(c2)CC(=O)N3)ncc1C(F)(F)F)S(C)(=O)=O.O=S(=O)(O)c1ccccc1	active: -3.53
O=S(=O)(O)NC1CCCCC1	inactive: 0.812
NC(=O)CN1CC(O)CC1=O (configuration not stated) [Oxiracetam]	inactive: 2.26

SMILES	cell-cell fusion (z-score)
C[C@]12CC[C@@H]3c4ccc(O)cc4CC[C@H]3[C@@H]1CCC2=O [Estrone]	inactive: 2.95
COc1ccc(-n2c(SCc3nc(-c4ccc(C)cc4)no3)nnc2-c2ccncc2)cc1	inactive: 0.0715
[N-]=[N+]=Nc1ccc(C(=O)CSC[C@H](NC(=O)CC[C@H](N)C(=O)O)C(=O)NCC(=O)O)cc1 [S-(p-Azidophenacyl)glutathione]	inactive: 1.44
Cl.Cl.O=C1c2c(O)ccc(O)c2C(=O)c2c(NCCNCCO)ccc(NCCNCCO)c21 [Mitoxantrone Hydrochloride]	inactive: 2.02
CC[C@@H](CO)NC(=O)[C@@H]1C=C2c3cccc4[nH]cc(c34)C[C@H]2N(C)C1.O=C(O)/C=C\C(=O)O	inactive: -1.09
O=C([O-])CC(O)(CC(=O)[O-])C(=O)[O-].O=C([O-])CC(O)(CC(=O)[O-])C(=O)[O-].[Bi+3].[K+].[K+].[K+] [Gastrodenol]	inactive: 1.71
O=C([O-])C[C@H](O)C[C@H](O)/C=C/c1c(C2CC2)nc2ccccc2c1-c1ccc(F)cc1.O=C([O-])C[C@H](O)C[C@H](O)/C=C/c1c(C2CC2)nc2ccccc2c1-c1ccc(F)cc1.[Ca+2] [Pitavastatin calcium]	inactive: -0.0101
O=C(O)c1nc2cc(Cl)c(Cl)cc2nc1O	inactive: -0.161
CC(=O)S[C@@H]1CC2=CC(=O)CC[C@]2(C)[C@H]2CC[C@@]3(C)[C@@H](CC[C@@]34CCC(=O)O4)C12 (some centres not stated)	inactive: 3.21
CC(=O)N[C@@H]1[C@@H](O)[C@H](O)[C@@H](CO)O[C@H]1O	inactive: 1.88
C=C1CCC2[C@](C)(CO)[C@H](O)CC[C@@]2(C)[C@@H]1C/C=C1/C(=O)OC[C@H]1O (some centres not stated)	inactive: 2.44
Cc1nc(NC(=O)N2CCC[C@H]2C(N)=O)sc1-c1csc(C(C)(C)C)n1	inactive: -2.76
O=c1[nH]c(=O)n([C@H]2C[C@H](O)C(CO)O2)cc1I (some centres not stated)	inactive: 2.61
CC(=O)O.CSC(=N)NCCC[C@H](N)C(=O)O [S-Methyl-L-thiocitrulline acetate]	inactive: 3.06
Cl.Nc1ccc(/N=N/c2ccccc2)c(N)n1	inactive: 0.943
CC(C)(C)c1onc(OCP(=O)(O)O)c1CC(N)C(=O)O (configuration not stated)	inactive: 2.91
Cc1ccc(/C(=C\CN2CCCC2)c2ccccn2)cc1.Cl.O [Triprolidine hydrochloride]	inactive: 1.6
CCC[C@@H]1C[C@@H](C(=O)N[C@@H]([C@H]2O[C@H](SC)[C@H](O)[C@@H](O)[C@H]2O)[C@H](C)Cl)N(C)C1.Cl [Clindamycin HCl]	inactive: 1.96
c1ccc2[nH]c(-c3cscn3)nc2c1 [Thiabendazole]	inactive: 3.02
Cc1cccc(Nc2ccncc2S(=O)(=O)NC(=O)NC(C)C)c1	inactive: 0.775
C[C@H](N)[C@H](O)c1cccc(O)c1.O=C(O)[C@H](O)[C@@H](O)C(=O)O [Metaraminol bitartrate]	inactive: 0.397

Part of the list above, as labelled records.
CCC[C@H](N[C@@H](C)C(=O)N1[C@H](C(=O)O)C[C@@H]2CCCC[C@@H]21)C(=O)O
  cell-cell fusion (z-score): inactive: 1.86
NC(=O)CN1CC(O)CC1=O (configuration not stated) [Oxiracetam]
  cell-cell fusion (z-score): inactive: 2.26
